{
  "source": "paper PMC4869255",
  "molecular_target": "hPRLR-ICD_(G236–H598), intracellular domain of the human prolactin receptor (human) (UniProt P16471)",
  "experiment": "NMR, 1H-15N-HSQC spectra at two concentrations; 15N-hPRLR-ICD_(G236–H598) at 400 μM and 20 μM, 5 °C, 20 mM Na2HPO4/NaH2PO4 pH 7.3, 8 mM TCEP; chemical shifts compared; both purified",
  "note": "Results are given in words; binding and its absence hold for the method and conditions named.",
  "data": [
    {"binder": "hPRLR-ICD_(G236–H598), intracellular domain of the human prolactin receptor (domain or fragment, UniProt P16471 260-622) GYSMVTCIFPPVPGPKIKGFDAHLLEKGKSEELLSALGCQDFPPTSDYEDLLVEYLEVDDSEDQHLMSVHSKEHPSQGMKPTYLDPDTDSGRGSCDSPSLLSEKCEEPQANPSTFYDPEVIEKPENPETTHTWDPQCISMEGKIPYFHAGGSKCSTWPLPQPSQHNPRSSYHNITDVCELAVGPAGAPATLLNEAGKDALKSSQTIKSREEGKATQQREVESFHSETDQDTPWLLPQEKTPFGSAKPLDYVEIHKVNKDGALSLLPKQRENSGKPKKPGTPENNKEYAKVSGVMDNNILVLVPDPHAKNVACFEESAKEAPPSLEQNQAEKALANFTATSSKCRLQLGGLDYLDPACFTHSFH", "values": [
      {"measurement": "binding", "result": "no binding (tested: 400 μM)"}
    ]}
  ]
}
